Experimental data as given in patent US8552007B2, “Mesoionic pesticides” (E.I. du Pont de Nemours and Company, priority 2008, dated 2013).
Where a name gives a salt, the structure may show the parent alone. Read-outs that look alike come from different tables or passages of the source. Some results were stated once for a whole list of compounds, not compound by compound. At least one structure is not confirmed: it was looked up by name or label, or the drawing left a doubt.

How the values were obtained:
Type in all cases: in vivo
[1] = tested on: corn planthopper (Peregrinus maidis); details: maize plant, 6 days
Description: For evaluating control of corn planthopper (Peregrinus maidis) through contact and/or systemic means, the test unit consisted of a small open container with a 3-4-day-old maize plant (spike) inside. White sand was added to the top of the soil prior to application. Test compounds were formulated and sprayed at 250 and 50 ppm and replicated three times as described for Test A. After spraying, the test units were allowed to dry for 1 h before they were post-infested with ˜15-20 nymphs (18 to 21 day old) by sprinkling them onto the sand with a salt shaker. A black, screened cap was placed on the top of the cylinder. The test units were held for 6 days in a growth chamber at 22-24° C. and 50-70% relative humidity. Each test unit was then visually assessed for insect mortality.

[2] = tested on: diamondback moth (Plutella xylostella); experiment: Test A: control of diamondback moth, foliar spray on pre-infested radish plant; details: sprayed at 250 ppm, 6 days at 25° C., very good to excellent control
[3] = tested on: potato leafhopper (Empoasca fabae); details: Soleil bean plant, 6 days

SMILES | mortality ([1]; sprayed at 250 ppm) | mortality ([1]; sprayed at 50 ppm) | further results
CCC[n+]1c([O-])c(-c2ccccc2OC(F)(F)F)c(=O)n2ccccc21 [Compound 322] | at least 80% | – | –
CCC[n+]1c([O-])c(C(=O)OCC)c(=O)n2ccccc21 [Compound 687] | at least 80% | – | –
CCCCC[n+]1c([O-])c(-c2ccccc2)c(=O)n2ccccc21 [Compound 299] | at least 80% | – | control efficacy: feeding damage (40% or less feeding damage and/or 100% mortality) [2]: ≤ 40%
COc1ccccc1-c1c([O-])[n+](C(C)C(F)(F)F)c2ccccn2c1=O (centres unmarked) [Compound 244] | – | ≥ 80% | mortality ([3]; sprayed at 50 ppm): ≥ 80%
O=c1cc([O-])[n+](Cc2ccc(Cl)nc2)c2ccccn12 [Compound 611, 1-[(6-chloro-3-pyridinyl)methyl]-2-hydroxy-4-oxo-4H-pyrido[1,2-a]pyrimidinium inner salt] | at least 80% | – | –
O=c1c(-c2ccc(F)cc2F)c([O-])[n+](Cc2cccnc2)c2ccccn12 [Compound 413] | at least 80% | ≥ 80% | –
CCC[n+]1c([O-])c(-c2cc(F)c(F)c(F)c2)c(=O)n2ccccc21 [Compound 298] | at least 80% | – | control efficacy: feeding damage (40% or less feeding damage and/or 100% mortality) [2]: ≤ 40%
CCC[n+]1c([O-])c(-c2ccccc2C(F)(F)F)c(=O)n2ccccc21 [Compound 308, 2-hydroxy-4-oxo-1-propyl-3-[2-(trifluoromethyl)phenyl]-4H-pyrido[1,2-a]-pyrimidinium inner salt] | at least 80% | – | mortality ([3]; sprayed at 250 ppm): ≥ 80%
O=c1c(-c2ccccc2I)c([O-])[n+](Cc2ccc(Cl)nc2)c2ccccn12 [Compound 632] | – | ≥ 80% | control efficacy: feeding damage (40% or less feeding damage and/or 100% mortality) [2]: ≤ 40%
O=c1c(-c2cccc(C(F)(F)F)n2)c([O-])[n+](Cc2ccc(F)nc2)c2ccccn12 [Compound 547] | – | ≥ 80% | –
O=c1c(-c2cc(C(F)(F)F)ccn2)c([O-])[n+](Cc2ccc(F)nc2)c2ccccn12 [Compound 522] | – | ≥ 80% | –
CCC[n+]1c([O-])c(-c2ccc(F)cc2OC)c(=O)n2ccccc21 [Compound 409] | at least 80% | – | mortality ([3]; sprayed at 250 ppm): ≥ 80%
CCC[n+]1c([O-])c(-c2ccc(F)c3ccccc23)c(=O)n2ccccc21 [Compound 564] | at least 80% | – | –
O=c1c(-c2cc(C(F)(F)F)ccn2)c([O-])[n+](Cc2ccc(Cl)nc2)c2ccccn12 [Compound 591] | at least 80% | ≥ 80% | mortality ([3]; sprayed at 50 ppm): ≥ 80%; mortality ([3]; sprayed at 250 ppm): ≥ 80%
O=c1c(-c2ncccc2F)c([O-])[n+](Cc2ccc(Cl)nc2)c2ccccn12 [Compound 586] | at least 80% | ≥ 80% | –
O=c1c(-c2ccc(F)cc2)c([O-])[n+](CCC(F)=C(F)F)c2ccccn12 [Compound 366] | at least 80% | – | control efficacy: feeding damage (40% or less feeding damage and/or 100% mortality) [2]: ≤ 40%
Cc1ccc(C[n+]2c([O-])c(-c3ccc(F)cc3F)c(=O)n3ccccc32)cn1 [Compound 465] | at least 80% | – | mortality ([3]; sprayed at 250 ppm): ≥ 80%
O=c1c(-c2ncccc2Cl)c([O-])[n+](Cc2ccc(Cl)nc2)c2ccccn12 [Compound 587] | at least 80% | ≥ 80% | –
CCC[n+]1c([O-])c(-c2cccc(F)c2F)c(=O)n2ccccc21 [Compound 162] | at least 80% | – | control efficacy: feeding damage (40% or less feeding damage and/or 100% mortality) [2]: ≤ 40%

SMILES | mortality ([1]; sprayed at 250 ppm) | mortality ([1]; sprayed at 50 ppm) | further results
CCOC(=O)C[n+]1c([O-])c(-c2ccccc2)c(=O)n2ccccc21 [Compound 296] | at least 80% | – | –
O=c1c(-c2cccc(-c3cccnc3)c2)c([O-])[n+](Cc2ccc(Cl)nc2)c2ccccn12 [Compound 523] | – | ≥ 80% | –
O=c1cc([O-])[n+](Cc2cccnc2)c2ccccn12 [Compound 612] | at least 80% | – | –
O=c1c(-c2ccc(F)cc2)c([O-])[n+](CC(F)(F)C(F)(F)F)c2ccccn12 [Compound 35] | at least 80% | – | –
CCC[n+]1c([O-])c(-c2ccccc2C#N)c(=O)n2ccccc21 [Compound 283] | at least 80% | – | mortality ([3]; sprayed at 250 ppm): ≥ 80%
CCC[n+]1c([O-])c(-c2ccnc(Cl)c2)c(=O)n2ccccc21 [Compound 562] | at least 80% | – | control efficacy: feeding damage (40% or less feeding damage and/or 100% mortality) [2]: ≤ 40%
COc1ccccc1-c1c([O-])[n+](Cc2cnn(C)c2)c2ccccn2c1=O [Compound 234] | – | ≥ 80% | –
COc1cc(-c2c([O-])[n+](CC(F)(F)F)c3ccccn3c2=O)c(F)cc1Cl [Compound 336] | at least 80% | – | –
O=c1c(-c2ccncc2F)c([O-])[n+](Cc2ccc(Cl)nc2)c2ccccn12 [Compound 584] | at least 80% | ≥ 80% | –
COc1ccc(-c2c([O-])[n+](Cc3ccc(Cl)nc3)c3ccccn3c2=O)c(F)c1F [Compound 448] | – | ≥ 80% | –
COc1cc(Br)cc(-c2c([O-])[n+](CC(F)(F)F)c3ccccn3c2=O)c1 [Compound 320] | at least 80% | ≥ 80% | –
CCC[n+]1c([O-])c(-c2cc(F)ccc2OC)c(=O)n2ccccc21 [Compound 317] | at least 80% | – | mortality ([3]; sprayed at 250 ppm): ≥ 80%
N#Cc1ccc(C[n+]2c([O-])c(-c3ccccc3)c(=O)n3ccccc32)cn1 [Compound 456] | – | ≥ 80% | –
O=c1c(-c2ccccc2)c([O-])[n+](CC2CCCO2)c2ccccn12 (centres unmarked) [Compound 428] | at least 80% | – | –
O=c1c(-c2ccccc2F)c([O-])[n+](Cc2ccc(F)nc2)c2sccn12 [Compound 643] | – | ≥ 80% | –
N#Cc1cccc(-c2c([O-])[n+](CC(F)(F)F)c3ccccn3c2=O)c1 [Compound 386] | at least 80% | – | control efficacy: feeding damage (40% or less feeding damage and/or 100% mortality) [2]: ≤ 40%
Cc1noc(C[n+]2c([O-])c(-c3ccccc3)c(=O)n3ccccc32)n1 [Compound 631] | – | ≥ 80% | –
CCC[n+]1c([O-])c(-c2ccccc2C)c(=O)n2ccccc21 [Compound 285] | at least 80% | – | mortality ([3]; sprayed at 250 ppm): ≥ 80%
O=c1c(-c2c(Cl)cccc2Cl)c([O-])[n+](CC(F)(F)F)c2ccccn12 [Compound 384] | at least 80% | – | –

SMILES | mortality ([1]; sprayed at 250 ppm) | mortality ([1]; sprayed at 50 ppm) | further results
COc1ccc(-c2c([O-])[n+](Cc3ccc(Cl)nc3)c3ccccn3c2=O)c(OC)c1 [Compound 442] | at least 80% | ≥ 80% | –
O=c1c(-c2ccc(F)cc2C(F)(F)F)c([O-])[n+](Cc2ccc(Cl)nc2)c2ccccn12 [Compound 415] | at least 80% | – | mortality ([3]; sprayed at 250 ppm): ≥ 80%
COc1ccccc1-c1c([O-])[n+](Cc2ccc(F)nc2)c2ccccn2c1=O [Compound 249] | – | ≥ 80% | –
O=c1c(-c2cc(-c3ccc(F)nc3)ccc2F)c([O-])[n+](Cc2ccc(Cl)nc2)c2ccccn12 [Compound 527] | – | ≥ 80% | control efficacy: feeding damage (40% or less feeding damage and/or 100% mortality) [2]: ≤ 40%
COc1ccc(F)c(F)c1-c1c([O-])[n+](Cc2cnc(Cl)s2)c2ccccn2c1=O [Compound 664] | – | ≥ 80% | control efficacy: feeding damage (40% or less feeding damage and/or 100% mortality) [2]: ≤ 40%
O=c1c(-c2ccccc2OCc2ccccc2)c([O-])[n+](CC(F)(F)F)c2ccccn12 [Compound 568] | at least 80% | – | mortality ([3]; sprayed at 250 ppm): ≥ 80%
CON=C(c1c([O-])[n+](CC(F)(F)F)c2ccccn2c1=O)C(F)(F)F [Compound 637, 2-hydroxy-4-oxo-1-(2,2,2-trifluoroethyl)-3-[2,2,2-trifluoro-1-(methoxyimino)ethyl]-4H-pyrido[1,2-a]-pyrimidinium inner salt] | – | ≥ 80% | –
CC(C)Cc1c([O-])[n+](CC(F)(F)F)c2ccccn2c1=O [Compound 116] | at least 80% | – | mortality ([3]; sprayed at 250 ppm): ≥ 80%
COC(=O)C[n+]1c([O-])c(-c2ccc(F)cc2)c(=O)n2ccccc21 [Compound 402] | at least 80% | – | –
O=c1c(-c2ccc(F)c3ccccc23)c([O-])[n+](Cc2ccc(Cl)nc2)c2ccccn12 [Compound 573] | at least 80% | ≥ 80% | mortality ([3]; sprayed at 250 ppm): ≥ 80%
CCC[n+]1c([O-])c(-c2cccc3ccccc23)c(=O)n2ccccc21 [Compound 556] | at least 80% | – | –
CC(=O)Oc1cccc(-c2c([O-])[n+](Cc3ccc(Cl)nc3)c3ccccn3c2=O)c1 [Compound 447] | at least 80% | – | –
CC(c1ccc(F)nc1)[n+]1c([O-])c(-c2ccc(F)cc2F)c(=O)n2ccccc21 (centres unmarked) [Compound 260] | – | ≥ 80% | mortality ([3]; sprayed at 50 ppm): ≥ 80%
Cc1nnc(C[n+]2c([O-])c(-c3ccccc3)c(=O)n3ccccc32)o1 [Compound 241] | – | ≥ 80% | –
O=C(c1cccs1)c1c([O-])[n+](Cc2cnc(Cl)s2)c2ccccn2c1=O [Compound 708] | – | ≥ 80% | –
CCC[n+]1c([O-])c(-c2cccc(C(C)=O)c2)c(=O)n2ccccc21 [Compound 306] | at least 80% | – | –
O=c1c(-c2ccc(F)cc2F)c([O-])[n+](CCC(F)=C(F)F)c2ccccn12 [Compound 368] | at least 80% | – | –
CCC[n+]1c([O-])c(-c2cc(F)ccc2F)c(=O)n2ccccc21 [Compound 309] | at least 80% | – | –
O=c1c(-c2ccc(F)cc2F)c([O-])[n+](Cc2ccc(F)nc2)c2sccn12 [Compound 641] | – | ≥ 80% | mortality ([3]; sprayed at 50 ppm): ≥ 80%
